From the supplement of paper PMC7666118
The list shows a part of the results.

The chains behind the UniProt entries cited, without tags or fusion partners. Where a name states a change or a piece, a line headed by the entry shows the natural chain unless it says otherwise.
UniProt Q15776: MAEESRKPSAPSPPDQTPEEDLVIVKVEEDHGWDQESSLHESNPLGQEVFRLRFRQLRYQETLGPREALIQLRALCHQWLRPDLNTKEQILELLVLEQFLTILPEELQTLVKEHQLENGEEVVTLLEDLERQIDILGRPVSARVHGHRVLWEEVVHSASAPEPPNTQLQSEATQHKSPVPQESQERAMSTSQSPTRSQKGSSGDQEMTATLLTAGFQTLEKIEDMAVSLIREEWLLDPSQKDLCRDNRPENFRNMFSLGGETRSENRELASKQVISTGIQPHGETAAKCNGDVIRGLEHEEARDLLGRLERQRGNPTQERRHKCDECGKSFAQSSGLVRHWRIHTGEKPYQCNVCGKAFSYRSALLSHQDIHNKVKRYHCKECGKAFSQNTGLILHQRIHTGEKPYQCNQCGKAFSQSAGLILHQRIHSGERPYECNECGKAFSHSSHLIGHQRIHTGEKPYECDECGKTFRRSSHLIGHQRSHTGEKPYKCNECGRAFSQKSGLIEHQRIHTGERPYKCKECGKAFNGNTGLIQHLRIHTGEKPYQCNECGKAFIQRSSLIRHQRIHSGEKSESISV
UniProt Q93008, whole entry: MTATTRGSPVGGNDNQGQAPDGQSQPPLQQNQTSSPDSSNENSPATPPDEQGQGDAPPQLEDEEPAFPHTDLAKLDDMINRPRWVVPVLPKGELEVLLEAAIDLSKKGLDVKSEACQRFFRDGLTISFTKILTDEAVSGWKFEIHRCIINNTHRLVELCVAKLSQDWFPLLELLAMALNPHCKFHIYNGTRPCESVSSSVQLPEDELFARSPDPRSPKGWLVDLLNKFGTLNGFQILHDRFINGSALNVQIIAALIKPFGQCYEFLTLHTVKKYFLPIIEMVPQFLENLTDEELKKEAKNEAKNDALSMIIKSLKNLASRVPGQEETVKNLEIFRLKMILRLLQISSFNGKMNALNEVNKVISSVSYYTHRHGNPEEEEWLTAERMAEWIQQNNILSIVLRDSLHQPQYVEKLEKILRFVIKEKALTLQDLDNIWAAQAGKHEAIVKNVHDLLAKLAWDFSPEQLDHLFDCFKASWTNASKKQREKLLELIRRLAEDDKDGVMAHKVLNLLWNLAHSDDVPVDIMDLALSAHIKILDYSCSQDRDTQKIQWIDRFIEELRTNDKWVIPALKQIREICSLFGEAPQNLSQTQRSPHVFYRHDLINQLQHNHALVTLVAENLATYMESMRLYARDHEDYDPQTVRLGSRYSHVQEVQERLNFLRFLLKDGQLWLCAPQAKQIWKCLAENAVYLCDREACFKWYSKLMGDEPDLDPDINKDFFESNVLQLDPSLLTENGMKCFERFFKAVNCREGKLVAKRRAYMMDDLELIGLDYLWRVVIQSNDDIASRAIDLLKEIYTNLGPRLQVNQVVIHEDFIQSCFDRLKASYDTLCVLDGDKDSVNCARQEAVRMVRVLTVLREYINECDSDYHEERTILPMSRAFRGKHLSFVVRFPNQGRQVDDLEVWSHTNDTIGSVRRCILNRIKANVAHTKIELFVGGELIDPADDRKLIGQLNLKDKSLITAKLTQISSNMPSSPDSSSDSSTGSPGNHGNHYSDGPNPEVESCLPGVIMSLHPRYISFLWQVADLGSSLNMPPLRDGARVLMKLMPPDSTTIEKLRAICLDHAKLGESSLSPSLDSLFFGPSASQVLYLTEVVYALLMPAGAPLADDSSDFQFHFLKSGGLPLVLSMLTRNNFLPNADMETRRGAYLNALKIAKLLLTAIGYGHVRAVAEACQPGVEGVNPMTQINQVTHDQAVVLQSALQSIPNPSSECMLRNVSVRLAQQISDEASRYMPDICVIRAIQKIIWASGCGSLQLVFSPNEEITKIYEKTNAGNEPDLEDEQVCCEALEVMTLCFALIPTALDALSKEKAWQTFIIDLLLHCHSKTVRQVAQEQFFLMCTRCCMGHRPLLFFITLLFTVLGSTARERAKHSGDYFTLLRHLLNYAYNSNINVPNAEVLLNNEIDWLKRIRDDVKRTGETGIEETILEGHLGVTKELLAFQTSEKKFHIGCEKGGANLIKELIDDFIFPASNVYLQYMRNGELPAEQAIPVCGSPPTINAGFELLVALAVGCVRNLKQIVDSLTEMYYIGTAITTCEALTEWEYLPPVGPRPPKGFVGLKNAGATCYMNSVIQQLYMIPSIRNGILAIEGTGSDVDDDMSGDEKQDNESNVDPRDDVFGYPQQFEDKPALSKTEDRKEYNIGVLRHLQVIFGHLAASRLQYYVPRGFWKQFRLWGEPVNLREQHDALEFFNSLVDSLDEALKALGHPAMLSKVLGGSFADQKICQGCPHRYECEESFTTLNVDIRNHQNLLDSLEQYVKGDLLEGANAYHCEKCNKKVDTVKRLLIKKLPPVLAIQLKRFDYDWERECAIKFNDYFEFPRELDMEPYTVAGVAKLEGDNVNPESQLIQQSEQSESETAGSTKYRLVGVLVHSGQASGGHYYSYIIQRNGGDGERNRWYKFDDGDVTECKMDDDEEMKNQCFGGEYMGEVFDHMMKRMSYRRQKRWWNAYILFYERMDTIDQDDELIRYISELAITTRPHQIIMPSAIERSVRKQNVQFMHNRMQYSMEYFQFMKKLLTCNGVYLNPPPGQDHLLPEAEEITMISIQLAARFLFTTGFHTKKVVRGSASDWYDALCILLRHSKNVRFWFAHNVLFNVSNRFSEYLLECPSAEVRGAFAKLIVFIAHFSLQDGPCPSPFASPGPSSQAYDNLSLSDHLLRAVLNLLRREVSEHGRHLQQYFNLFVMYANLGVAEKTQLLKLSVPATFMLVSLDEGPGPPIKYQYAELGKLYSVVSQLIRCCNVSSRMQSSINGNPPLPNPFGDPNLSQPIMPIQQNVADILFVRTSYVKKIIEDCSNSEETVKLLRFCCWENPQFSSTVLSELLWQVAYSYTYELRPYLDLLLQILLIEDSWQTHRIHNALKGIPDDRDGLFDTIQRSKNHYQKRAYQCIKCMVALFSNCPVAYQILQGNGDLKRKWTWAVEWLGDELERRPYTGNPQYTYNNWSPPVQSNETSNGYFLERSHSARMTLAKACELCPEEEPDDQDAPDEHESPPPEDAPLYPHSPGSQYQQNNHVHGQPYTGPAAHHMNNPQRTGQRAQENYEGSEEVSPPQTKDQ
UniProt Q9H5U6: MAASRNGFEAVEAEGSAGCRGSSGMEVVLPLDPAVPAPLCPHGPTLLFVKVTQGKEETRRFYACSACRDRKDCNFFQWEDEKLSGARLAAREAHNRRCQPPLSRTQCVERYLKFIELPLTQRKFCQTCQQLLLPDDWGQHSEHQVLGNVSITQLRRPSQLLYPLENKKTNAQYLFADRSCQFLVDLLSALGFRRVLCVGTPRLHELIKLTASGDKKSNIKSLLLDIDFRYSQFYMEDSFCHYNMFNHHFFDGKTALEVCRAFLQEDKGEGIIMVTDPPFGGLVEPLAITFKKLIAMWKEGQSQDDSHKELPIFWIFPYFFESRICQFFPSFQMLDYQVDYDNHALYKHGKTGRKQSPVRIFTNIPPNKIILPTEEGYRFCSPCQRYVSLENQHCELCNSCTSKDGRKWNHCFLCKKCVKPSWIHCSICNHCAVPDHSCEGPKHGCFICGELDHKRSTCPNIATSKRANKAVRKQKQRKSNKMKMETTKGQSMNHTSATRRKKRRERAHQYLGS
UniProt O75312: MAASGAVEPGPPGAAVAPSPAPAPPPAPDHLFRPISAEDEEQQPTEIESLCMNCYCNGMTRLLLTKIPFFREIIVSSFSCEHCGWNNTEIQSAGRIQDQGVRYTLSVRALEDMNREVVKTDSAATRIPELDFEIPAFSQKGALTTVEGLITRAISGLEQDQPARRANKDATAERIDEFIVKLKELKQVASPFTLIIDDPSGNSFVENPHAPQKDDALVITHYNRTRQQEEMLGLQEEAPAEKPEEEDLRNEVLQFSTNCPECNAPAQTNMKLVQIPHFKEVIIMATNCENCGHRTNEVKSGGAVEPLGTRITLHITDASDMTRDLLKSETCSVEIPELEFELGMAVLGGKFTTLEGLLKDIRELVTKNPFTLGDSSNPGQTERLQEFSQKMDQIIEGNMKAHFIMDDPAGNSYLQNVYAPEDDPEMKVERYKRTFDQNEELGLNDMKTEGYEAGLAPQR
UniProt O75083: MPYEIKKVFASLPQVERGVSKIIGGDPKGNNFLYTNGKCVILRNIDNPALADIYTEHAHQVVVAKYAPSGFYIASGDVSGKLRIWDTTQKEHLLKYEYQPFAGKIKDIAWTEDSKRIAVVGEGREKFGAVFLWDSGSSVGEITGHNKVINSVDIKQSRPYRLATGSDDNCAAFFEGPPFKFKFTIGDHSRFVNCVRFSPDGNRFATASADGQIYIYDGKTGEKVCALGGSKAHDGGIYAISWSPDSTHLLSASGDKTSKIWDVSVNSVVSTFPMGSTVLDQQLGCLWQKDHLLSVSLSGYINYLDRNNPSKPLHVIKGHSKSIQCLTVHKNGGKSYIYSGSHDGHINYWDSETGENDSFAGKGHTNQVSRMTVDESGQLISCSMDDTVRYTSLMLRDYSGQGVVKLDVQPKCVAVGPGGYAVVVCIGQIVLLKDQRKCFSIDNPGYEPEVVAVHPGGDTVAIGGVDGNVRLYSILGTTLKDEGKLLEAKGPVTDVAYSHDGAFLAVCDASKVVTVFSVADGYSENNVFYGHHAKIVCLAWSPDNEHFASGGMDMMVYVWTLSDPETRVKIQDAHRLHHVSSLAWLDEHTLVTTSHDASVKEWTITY
UniProt Q01831: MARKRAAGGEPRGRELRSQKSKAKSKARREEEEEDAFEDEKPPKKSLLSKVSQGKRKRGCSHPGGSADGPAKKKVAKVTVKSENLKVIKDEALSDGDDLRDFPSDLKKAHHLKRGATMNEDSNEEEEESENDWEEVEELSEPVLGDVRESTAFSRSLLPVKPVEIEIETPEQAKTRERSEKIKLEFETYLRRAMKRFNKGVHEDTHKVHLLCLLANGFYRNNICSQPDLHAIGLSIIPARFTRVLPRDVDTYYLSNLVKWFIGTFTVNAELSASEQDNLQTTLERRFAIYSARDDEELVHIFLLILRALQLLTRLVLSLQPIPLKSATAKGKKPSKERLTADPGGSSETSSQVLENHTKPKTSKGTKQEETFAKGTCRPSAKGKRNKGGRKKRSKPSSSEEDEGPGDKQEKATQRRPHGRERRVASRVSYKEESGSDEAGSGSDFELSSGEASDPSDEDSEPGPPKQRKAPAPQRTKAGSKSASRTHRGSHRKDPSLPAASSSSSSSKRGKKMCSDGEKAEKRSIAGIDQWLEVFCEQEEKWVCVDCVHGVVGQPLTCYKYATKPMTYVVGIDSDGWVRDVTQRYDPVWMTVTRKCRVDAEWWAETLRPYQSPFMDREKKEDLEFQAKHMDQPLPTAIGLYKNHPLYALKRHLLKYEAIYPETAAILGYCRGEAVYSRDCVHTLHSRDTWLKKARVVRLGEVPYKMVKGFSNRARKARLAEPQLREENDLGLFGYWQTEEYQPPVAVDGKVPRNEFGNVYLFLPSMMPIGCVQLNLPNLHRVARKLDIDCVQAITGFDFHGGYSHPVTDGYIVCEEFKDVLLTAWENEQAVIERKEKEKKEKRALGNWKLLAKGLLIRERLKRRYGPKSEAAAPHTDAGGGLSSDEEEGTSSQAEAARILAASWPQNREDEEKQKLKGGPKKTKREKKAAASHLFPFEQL
UniProt O95070: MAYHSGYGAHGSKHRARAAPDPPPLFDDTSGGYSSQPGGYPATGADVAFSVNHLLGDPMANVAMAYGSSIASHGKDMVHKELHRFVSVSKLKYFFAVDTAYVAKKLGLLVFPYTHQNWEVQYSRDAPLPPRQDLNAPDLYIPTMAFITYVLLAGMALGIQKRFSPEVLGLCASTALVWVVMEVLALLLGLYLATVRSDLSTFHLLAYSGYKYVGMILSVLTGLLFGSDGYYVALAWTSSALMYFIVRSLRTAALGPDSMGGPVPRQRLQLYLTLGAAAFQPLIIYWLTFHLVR
UniProt Q7Z739: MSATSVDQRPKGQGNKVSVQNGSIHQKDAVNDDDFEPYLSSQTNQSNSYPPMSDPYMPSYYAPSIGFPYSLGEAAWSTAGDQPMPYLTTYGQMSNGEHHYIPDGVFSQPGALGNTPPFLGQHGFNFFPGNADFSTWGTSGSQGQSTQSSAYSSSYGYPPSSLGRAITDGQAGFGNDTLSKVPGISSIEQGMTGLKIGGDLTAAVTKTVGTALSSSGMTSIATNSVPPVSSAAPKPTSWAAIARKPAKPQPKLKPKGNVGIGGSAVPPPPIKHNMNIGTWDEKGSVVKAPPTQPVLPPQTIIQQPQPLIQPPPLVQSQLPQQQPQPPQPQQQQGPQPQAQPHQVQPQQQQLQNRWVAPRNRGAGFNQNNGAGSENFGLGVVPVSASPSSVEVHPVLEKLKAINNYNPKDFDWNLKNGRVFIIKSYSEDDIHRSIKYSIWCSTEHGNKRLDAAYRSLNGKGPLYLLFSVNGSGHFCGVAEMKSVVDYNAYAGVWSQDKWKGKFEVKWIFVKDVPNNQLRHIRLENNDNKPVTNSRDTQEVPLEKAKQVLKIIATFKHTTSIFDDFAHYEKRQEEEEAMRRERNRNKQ

compound: COc1ccc(Cn2ccc3ccc(C(=O)NO)cc32)cc1; test: dose-dependent thermal stabilisation call (2D-TPP, DLPTP, 10% FDR) (binary (1 = stabilised)); higher = stabilised by the compound; details: system: HL-60 intact cells; concentration range 0.04-10 µM

Row | Target | dose-dependent thermal stabilisation call
1 | ZBTB2 (UniProt Q8N680) | inactive: 0
2 | ZBTB9 (UniProt Q96C00) | inactive: 0
3 | ZMYM4 (UniProt Q5VZL5) | inactive: 0
4 | WDR82 (UniProt Q6UXN9) | inactive: 0
5 | XAB2 (UniProt Q9HCS7) | inactive: 0
6 | WBSCR22 (UniProt O43709) | inactive: 0
7 | ZNF192 (UniProt Q15776) | inactive: 0
8 | ZBTB24 (UniProt O43167) | inactive: 0
9 | UXT (UniProt Q9UBK9) | inactive: 0
10 | XRCC6 (UniProt P12956) | inactive: 0
11 | USP9X (UniProt Q93008) | inactive: 0
12 | ZC3HAV1 (UniProt Q7Z2W4) | inactive: 0
13 | ZFAND3 (UniProt Q9H8U3) | inactive: 0
14 | ZCCHC4 (UniProt Q9H5U6) | inactive: 0
15 | ZNF259 (UniProt O75312) | inactive: 0
16 | WRNIP1 (UniProt Q96S55) | inactive: 0
17 | XRCC1 (UniProt P18887) | inactive: 0
18 | WDR24 (UniProt Q96S15) | inactive: 0
19 | ZC3H11A (UniProt O75152) | inactive: 0

Row | Target | dose-dependent thermal stabilisation call
20 | WRB (UniProt O00258) | inactive: 0
21 | XPO7 (UniProt Q9UIA9) | inactive: 0
22 | VAMP4 (UniProt O75379) | inactive: 0
23 | VPS25 (UniProt Q9BRG1) | inactive: 0
24 | WDR1 (UniProt O75083) | inactive: 0
25 | WBP2 (UniProt Q969T9) | inactive: 0
26 | WDR35 (UniProt Q9P2L0) | inactive: 0
27 | XPC (UniProt Q01831) | inactive: 0
28 | YIF1A (UniProt O95070) | inactive: 0
29 | ZNF217 (UniProt O75362) | inactive: 0
30 | WDTC1 (UniProt Q8N5D0) | inactive: 0
31 | ZFYVE19 (UniProt Q96K21) | inactive: 0
32 | YTHDF3 (UniProt Q7Z739) | inactive: 0
33 | ZDHHC3 (UniProt Q9NYG2) | inactive: 0
34 | WDR44 (UniProt Q5JSH3) | inactive: 0
35 | ZMIZ1 (UniProt Q9ULJ6) | inactive: 0
36 | VEZF1 (UniProt Q14119) | inactive: 0
37 | ZC3HC1 (UniProt Q86WB0) | inactive: 0
